Drawing on PubChem BioAssay AID330 (DTP/NCI, 2004), this text covers survivor count and T/C for 19 compounds.

In the test the test system is P388 leukemia ip, CD2F1 mice, survival T/C. Put plainly: NCI In Vivo Anticancer Drug Screen. Data for tumor model P388 Leukemia (intraperitoneal) in CD2F1 (CDF1) mice. The settings on record: T/C endpoint: median survival time, higher T/C = longer survival.
Setting [1] is: dose: 200.0 mg/kg/injection, schedule: Q01DX009 (ip), vehicle: saline.
Where [2] appears, read: dose: 50.0 mg/kg/injection, schedule: Q01DX009 (ip), vehicle: saline.
The mark [3] stands for this setting: dose: 200.0 mg/kg/injection, schedule: Q01DX009 (ip), vehicle: Klucel (hydroxypropylcellulose) (HPC).
Setting [4] is: dose: 15.0 mg/kg/injection, schedule: Q01DX005 (ip), vehicle: saline with Tween-80.
Setting [5] is: dose: 60.0 mg/kg/injection, schedule: Q01DX005 (ip), vehicle: saline with Tween-80.
Where [6] appears, read: dose: 120.0 mg/kg/injection, schedule: Q01DX005 (ip), vehicle: saline with Tween-80.
Where [7] appears, read: dose: 200.0 mg/kg/injection, schedule: Q01DX005 (ip), vehicle: Klucel (hydroxypropylcellulose) (HPC).

The list does not hold the whole screen: it gathers tests that were run many times, whatever their T/C, doses with no T/C, and many T/C values between a quarter and a half above the control. Further doses and runs are listed elsewhere. T/C gives the treated animals as a percentage of the vehicle group. Some entries give survivors of the animals treated and no T/C: the source files T/C as zero there, which appears to mark a toxic dose or a test without result, not a measured value. Some survivor counts are full or nearly so, which does not show that the dose was tolerated: the source hardly ever lists a survival T/C far under the control, and the zero likely stands for such cases as well. Survivors were counted at the toxicity check, usually on the fifth day, unless a day is given; later deaths do not show. Schedules are NCI's codes, read here as Q, the interval in days (D) or hours (H), X, the number of doses. Counts like (3×) give the number of equal values in this list. Some entries were tested several times; their values stand side by side, smallest first. Where survival is the endpoint, the PubChem record calls one and a half times the control and up active, and a quarter to a half above the control has no call in these data; cut-offs in other NCI protocols can differ. Some T/C values are followed by the survivors on the day toxicity was checked, most often the fifth; without a count, all were alive then.

On to `CCN(CC)CCCNC(=O)C(c1ccccc1)c1ccccc1`, for which the survivor count (dose: 100.0 mg/kg/injection, schedule: Q01DX005 (ip), vehicle: saline) is 3 of 5 and the survivor count (dose: 200.0 mg/kg/injection, schedule: Q01DX005 (ip), vehicle: saline) was 0 of 5.

With `CCN(CC)CCNC1CC(C)CC(C)(C)C1` (centres undefined), the survivor count (dose: 200.0 mg/kg/injection, schedule: Q01DX005 (ip), vehicle: saline with Tween-80) is on record as 0 of 6.

Consider `ClC(Cl)=Nc1ccc(Cl)cc1Cl`, for which the survivor count under setting [1] is 2 of 6.

Regarding `NC(=S)c1cccc(C=Nc2ccccc2)n1`, the survivor count by setting is: (dose: 50.0 mg/kg/injection, schedule: Q04DX003 (ip), vehicle: Klucel (hydroxypropylcellulose) (HPC)) 6 of 6; (dose: 200.0 mg/kg/injection, schedule: Q04DX003 (ip), vehicle: Klucel (hydroxypropylcellulose) (HPC)) 6 of 6.

As to `COc1ccc2c(c1OC(C)=O)-c1cc(OC(C)=O)cc3c1C(C2)N(C(=O)CN(CCCl)CCCl)CC3` (centres undefined), the T/C (dose: 3.13 mg/kg/injection, schedule: Q04DX003 (ip), vehicle: other) was 138 % of control. For the same compound, the survivor count (dose: 100.0 mg/kg/injection, schedule: Q04DX003 (ip), vehicle: DMSO) is listed as 3 of 6; the survivor count (dose: 200.0 mg/kg/injection, schedule: Q04DX003 (ip), vehicle: DMSO) is given as 0 of 6; the survivor count (dose: 400.0 mg/kg/injection, schedule: Q04DX003 (ip), vehicle: DMSO) is on record as 0 of 6.

With `CCOP(=S)(OCC)Oc1cc(C)nc(C(C)C)n1`, under “dose: 200.0 mg/kg/injection, schedule: Q01DX009 (ip), vehicle: saline with Tween-80”, the survivor count was 6 of 6.

With `CC(C)=CCC/C(C)=C/COc1ccc(/C=C2/C(=O)N(O)[C@@H](C)C(=O)N2O)cc1`, the T/C is 128 % of control (dose: 12.5 mg/kg/injection, schedule: Q01DX009 (ip), vehicle: saline); 133 % of control [5 of 6 alive] (dose: 25.0 mg/kg/injection, schedule: Q01DX009 (ip), vehicle: saline); 137 and 139 % of control under setting [2]. Further, the survivor count by setting is: under setting [2], 3 of 6; (dose: 100.0 mg/kg/injection, schedule: Q01DX009 (ip), vehicle: saline) 4 of 6; under setting [1], 1 of 6.

Take `CCOC(=O)c1cc(Cl)cc2c(=O)c3c(O)c4[nH]c5c(C(=O)OCC)cc(Cl)cc5c(=O)c4c(O)c3[nH]c12`: the survivor count under setting [3] is 3 of 6.

In the case of `CC(=O)C(Cl)C(=O)c1c(C)[nH]n(-c2ccccc2)c1=O` (centres undefined), the T/C reads like this: (dose: 50.0 mg/kg/injection, schedule: Q01DX005 (ip), vehicle: Klucel (hydroxypropylcellulose) (HPC)) 126 % of control; (dose: 100.0 mg/kg/injection, schedule: Q01DX005 (ip), vehicle: Klucel (hydroxypropylcellulose) (HPC)) 126 % of control; (dose: 200.0 mg/kg/injection, schedule: Q01DX005 (ip), vehicle: Klucel (hydroxypropylcellulose) (HPC), evaluated on day 20) 126 % of control [5 of 6 alive]; (dose: 200.0 mg/kg/injection, schedule: Q01DX005 (ip), vehicle: Klucel (hydroxypropylcellulose) (HPC), evaluated on day 30) 145 % of control. Moreover, the survivor count (dose: 400.0 mg/kg/injection, schedule: Q01DX005 (ip), vehicle: Klucel (hydroxypropylcellulose) (HPC)) is recorded as 1 of 6.

As to `Nc1nc(N)c2nc(CNc3ccc(C(=O)NC(CCC(=O)O)C(=O)O)cc3F)cnc2n1` (centres undefined), the T/C (dose: 0.47 mg/kg/injection, schedule: Q01DX005 (ip), vehicle: saline with Tween-80) is 136 % of control; the T/C (dose: 0.93 mg/kg/injection, schedule: Q01DX005 (ip), vehicle: saline with Tween-80) is 145 % of control; the T/C (dose: 1.87 mg/kg/injection, schedule: Q01DX005 (ip), vehicle: saline with Tween-80) is 149 % of control; the T/C (dose: 3.75 mg/kg/injection, schedule: Q01DX005 (ip), vehicle: saline with Tween-80, evaluated on day 20) was 157 % of control; the T/C (dose: 3.75 mg/kg/injection, schedule: Q01DX005 (ip), vehicle: saline with Tween-80, evaluated on day 30) is 169 and 181 % of control; the T/C under setting [4] was 90 % of control. In addition, the survivor count reads like this: (dose: 3.75 mg/kg/injection, schedule: Q01DX005 (ip), vehicle: saline with Tween-80) 6 of 6; (dose: 7.5 mg/kg/injection, schedule: Q01DX005 (ip), vehicle: saline with Tween-80) 6 of 6 (2×); under setting [4], 6 of 6 (2×); (dose: 30.0 mg/kg/injection, schedule: Q01DX005 (ip), vehicle: saline with Tween-80) 6 of 6; under setting [5], 5 of 6 and 6 of 6; under setting [6], 6 of 6. For the same compound, the survivor count (dose: 240.0 mg/kg/injection, schedule: Q01DX005 (ip), vehicle: saline with Tween-80) is 6 of 6.

On to `C[N+](C)(C)CCC(=O)c1ccccc1`, for which the survivor count is, setting by setting: (dose: 50.0 mg/kg/injection, schedule: Q01DX009 (ip), vehicle: Klucel (hydroxypropylcellulose) (HPC)) 1 of 6 and 5 of 6; (dose: 100.0 mg/kg/injection, schedule: Q01DX009 (ip), vehicle: Klucel (hydroxypropylcellulose) (HPC)) 0 of 6; under setting [3], 0 of 6.

Take `CCOC(=O)C(=CNc1cc(C)c2[nH]c3ccc(Br)cc3c2c1C)C(=O)OCC`: the survivor count by setting is: under setting [5], 6 of 6; under setting [6], 6 of 6.

With `N/C=N/O`, under setting [1], the T/C was 125 [5 of 6 alive] and 138 % of control. Also, the survivor count by setting is: (dose: 400.0 mg/kg/injection, schedule: Q01DX009 (ip), vehicle: saline) 6 of 6; (dose: 600.0 mg/kg/injection, schedule: Q01DX009 (ip), vehicle: saline) 0 of 6 and 3 of 6.

Take `CCCCCCCCCCCCOC(=O)/C=C\C(=O)NC(N)=O`: the survivor count (dose: 400.0 mg/kg/injection, schedule: Q04DX002 (ip), vehicle: Klucel (hydroxypropylcellulose) (HPC)) is listed as 5 of 6.

Take `CCC12CN3CCc4c([nH]c5ccccc45)C(C(=O)OC)(c4cc5c(cc4OC)N(C)C4C(O)(C(=O)OC)C(OC(C)=O)C6(CC)C=CCN7CCC54C76)CC(C3=O)C1O2` (centres undefined): the T/C (dose: 4.0 mg/kg/injection, schedule: Q01DX001 (ip), vehicle: water) is 125 % of control; the T/C (dose: 8.0 mg/kg/injection, schedule: Q01DX001 (ip), vehicle: water) was 131 and 133 % of control; the T/C (dose: 16.0 mg/kg/injection, schedule: Q01DX001 (ip), vehicle: water) is 144 and 149 % of control; the T/C (dose: 32.0 mg/kg/injection, schedule: Q01DX001 (ip), vehicle: water) was 148 % of control. Further, the survivor count (dose: 64.0 mg/kg/injection, schedule: Q01DX001 (ip), vehicle: water) is 1 of 6.

Regarding `CCOC(=O)COc1cc2c(cc1C(C)c1ccc(OCc3ccccc3)c(OC)c1)OCO2` (centres undefined), the survivor count under setting [7] is on record as 6 of 6.

With `COC(=O)C1c2cc3c(c(O)c2C(OC2OC(C)C(OC)C(C)(OC)C2OC)CC1(C)O)C(=O)c1c(O)cc2c(c1C3=O)OC1OC2(C)C(OC(C)=O)C(N(C)C)C1OC(C)=O` (centres undefined), under “dose: 3.12 mg/kg/injection, schedule: Q04DX003 (ip), vehicle: other”, the T/C is 147 % of control. In addition, the survivor count was 5 of 6 (dose: 6.25 mg/kg/injection, schedule: Q04DX003 (ip), vehicle: other); 1 of 6 and 3 of 6 (dose: 12.5 mg/kg/injection, schedule: Q04DX003 (ip), vehicle: other); 0 of 6 and 1 of 6 (dose: 25.0 mg/kg/injection, schedule: Q04DX003 (ip), vehicle: other); 0 of 6 and 1 of 5 (dose: 50.0 mg/kg/injection, schedule: Q04DX003 (ip), vehicle: other); 1 of 6 (dose: 100.0 mg/kg/injection, schedule: Q04DX003 (ip), vehicle: other).

As to `Cc1cnc(N)c(C(=O)O)n1`, the survivor count under setting [7] is listed as 3 of 5.

As to `Cc1cccc(Nc2c(C(=O)O)cnc3cc4c(cc23)OCO4)c1C`, under “dose: 60.0 mg/kg/injection, schedule: Q01DX005 (ip), vehicle: Klucel (hydroxypropylcellulose) (HPC)”, the survivor count was 6 of 6.
